Earlier results, collected in patent US6562363B1, “Bioadhesive compositions and methods for topical administration of active agents” (Noven Pharmaceuticals, Inc., priority 1997, dated 2003).

Details: application to skin or mucous membranes

CCN(CC)CC(=O)Nc1c(C)cccc1C [Lidocaine]
Duration of Effect (duration of anesthetic effect): 30 to 60 min | Peak Effect (time to peak anesthetic effect): 2 to 5 min
